The other results are listed elsewhere or left out.
Each target was assayed with c1cn2cc(-c3ccc4cn[nH]c4c3)nc(Nc3ccc(N4CCOCC4)cc3)c2n1 [entospletinib] (assay: log2 fold change, soluble protein after heating vs DMSO (PISA); higher = thermal stabilisation; K562 cells, 10 uM, 30 min; active = over 0.2 and 3.5 SD of the protein, either way, in both replicates (recomputed)).
How it was run: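 K562 cells at 2×10^6 cells/mL were treated for 30 min with 10 μM compound, and aliquots were heated for 3 min over 48°C-58°C before pooling. Extraction used PBS with 0.5% NP-40 at 4°C, and soluble protein was the supernatant after 21,000xg for 90 min, measured by TMTpro 16plex LC-MS/MS with channel sums equalised. Thermal stability values, relative to control samples and from duplicates, are log2 fold changes.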

The chains behind the UniProt entries cited, without tags or fusion partners. Where a name states a change or a piece, a line headed by the entry shows the natural chain unless it says otherwise.
UniProt Q8N201, whole entry, looked up: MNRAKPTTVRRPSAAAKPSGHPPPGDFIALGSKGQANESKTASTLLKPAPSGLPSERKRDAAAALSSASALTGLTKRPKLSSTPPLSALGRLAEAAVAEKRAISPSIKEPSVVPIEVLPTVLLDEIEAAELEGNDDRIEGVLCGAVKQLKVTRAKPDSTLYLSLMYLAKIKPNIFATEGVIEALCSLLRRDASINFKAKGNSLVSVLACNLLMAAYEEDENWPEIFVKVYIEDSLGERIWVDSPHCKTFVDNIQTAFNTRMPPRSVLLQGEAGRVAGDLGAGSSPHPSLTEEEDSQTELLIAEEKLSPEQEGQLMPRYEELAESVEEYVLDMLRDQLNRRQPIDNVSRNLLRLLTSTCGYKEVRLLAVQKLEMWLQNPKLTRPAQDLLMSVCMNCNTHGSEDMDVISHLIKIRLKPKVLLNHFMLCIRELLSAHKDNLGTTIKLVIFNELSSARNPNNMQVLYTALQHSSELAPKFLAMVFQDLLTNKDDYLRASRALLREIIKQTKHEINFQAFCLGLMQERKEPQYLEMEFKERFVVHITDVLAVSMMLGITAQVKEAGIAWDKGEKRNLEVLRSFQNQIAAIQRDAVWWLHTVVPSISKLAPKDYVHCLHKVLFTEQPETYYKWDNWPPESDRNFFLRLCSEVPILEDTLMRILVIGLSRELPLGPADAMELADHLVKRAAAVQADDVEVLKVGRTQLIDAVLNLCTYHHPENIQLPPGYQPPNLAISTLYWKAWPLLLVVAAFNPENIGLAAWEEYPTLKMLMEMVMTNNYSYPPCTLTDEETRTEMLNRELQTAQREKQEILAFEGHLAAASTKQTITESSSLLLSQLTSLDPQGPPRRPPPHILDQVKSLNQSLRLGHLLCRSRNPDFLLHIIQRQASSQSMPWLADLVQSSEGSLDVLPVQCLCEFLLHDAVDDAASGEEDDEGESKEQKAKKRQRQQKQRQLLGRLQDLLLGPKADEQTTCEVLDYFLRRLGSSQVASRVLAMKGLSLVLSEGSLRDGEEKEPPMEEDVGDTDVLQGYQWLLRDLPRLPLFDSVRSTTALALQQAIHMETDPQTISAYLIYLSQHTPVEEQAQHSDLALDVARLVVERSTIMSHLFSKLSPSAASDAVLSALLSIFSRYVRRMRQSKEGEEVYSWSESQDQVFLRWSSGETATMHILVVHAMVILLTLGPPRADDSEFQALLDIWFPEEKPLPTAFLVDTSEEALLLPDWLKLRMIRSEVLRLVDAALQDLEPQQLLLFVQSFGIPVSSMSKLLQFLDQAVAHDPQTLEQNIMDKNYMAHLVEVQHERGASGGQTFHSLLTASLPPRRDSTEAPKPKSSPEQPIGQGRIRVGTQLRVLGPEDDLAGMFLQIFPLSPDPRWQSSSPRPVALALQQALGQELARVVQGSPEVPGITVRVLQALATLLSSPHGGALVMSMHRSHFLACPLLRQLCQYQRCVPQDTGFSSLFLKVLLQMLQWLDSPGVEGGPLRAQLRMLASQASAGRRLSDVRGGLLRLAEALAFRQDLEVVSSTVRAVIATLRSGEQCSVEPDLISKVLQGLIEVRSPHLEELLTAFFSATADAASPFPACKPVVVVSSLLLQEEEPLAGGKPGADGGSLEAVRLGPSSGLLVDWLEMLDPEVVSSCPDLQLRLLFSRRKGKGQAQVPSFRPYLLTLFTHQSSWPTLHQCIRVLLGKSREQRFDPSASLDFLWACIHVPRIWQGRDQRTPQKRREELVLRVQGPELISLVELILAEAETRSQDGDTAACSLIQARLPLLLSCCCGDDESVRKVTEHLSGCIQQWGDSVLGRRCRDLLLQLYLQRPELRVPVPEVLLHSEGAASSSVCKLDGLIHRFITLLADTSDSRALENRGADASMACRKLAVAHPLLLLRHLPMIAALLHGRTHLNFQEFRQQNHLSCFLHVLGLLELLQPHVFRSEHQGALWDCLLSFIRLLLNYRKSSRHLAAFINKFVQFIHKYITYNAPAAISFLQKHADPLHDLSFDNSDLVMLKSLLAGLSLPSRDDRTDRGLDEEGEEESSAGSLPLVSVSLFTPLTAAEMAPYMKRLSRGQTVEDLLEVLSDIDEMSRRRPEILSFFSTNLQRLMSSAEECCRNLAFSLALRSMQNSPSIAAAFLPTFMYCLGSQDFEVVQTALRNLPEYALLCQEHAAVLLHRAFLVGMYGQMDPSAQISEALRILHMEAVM
UniProt Q8NBZ0, whole entry, looked up: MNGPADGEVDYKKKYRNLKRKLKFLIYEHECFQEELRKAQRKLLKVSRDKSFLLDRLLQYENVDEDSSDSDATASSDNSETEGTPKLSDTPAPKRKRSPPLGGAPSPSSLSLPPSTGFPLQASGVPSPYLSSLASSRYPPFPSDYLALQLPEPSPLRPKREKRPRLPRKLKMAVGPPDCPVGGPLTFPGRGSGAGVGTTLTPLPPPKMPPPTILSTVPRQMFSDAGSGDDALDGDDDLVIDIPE
UniProt Q9NV88, whole entry, looked up: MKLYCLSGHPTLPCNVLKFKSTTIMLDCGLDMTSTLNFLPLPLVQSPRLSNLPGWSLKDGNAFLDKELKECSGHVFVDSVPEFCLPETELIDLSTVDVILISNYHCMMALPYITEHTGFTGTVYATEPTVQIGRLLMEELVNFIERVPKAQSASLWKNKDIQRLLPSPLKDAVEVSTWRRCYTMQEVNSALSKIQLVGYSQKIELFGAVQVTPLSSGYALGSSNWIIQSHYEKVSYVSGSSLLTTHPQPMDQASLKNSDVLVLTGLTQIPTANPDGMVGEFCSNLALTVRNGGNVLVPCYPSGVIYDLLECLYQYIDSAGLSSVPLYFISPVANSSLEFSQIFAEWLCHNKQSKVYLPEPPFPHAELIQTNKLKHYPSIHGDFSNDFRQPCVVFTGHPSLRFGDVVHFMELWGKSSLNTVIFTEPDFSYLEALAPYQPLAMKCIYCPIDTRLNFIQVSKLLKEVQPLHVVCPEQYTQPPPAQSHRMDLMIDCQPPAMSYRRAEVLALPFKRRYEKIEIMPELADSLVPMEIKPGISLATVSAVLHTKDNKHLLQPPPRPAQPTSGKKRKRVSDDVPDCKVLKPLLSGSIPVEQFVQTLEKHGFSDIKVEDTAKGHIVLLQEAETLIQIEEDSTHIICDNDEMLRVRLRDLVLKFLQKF
UniProt Q9NV31: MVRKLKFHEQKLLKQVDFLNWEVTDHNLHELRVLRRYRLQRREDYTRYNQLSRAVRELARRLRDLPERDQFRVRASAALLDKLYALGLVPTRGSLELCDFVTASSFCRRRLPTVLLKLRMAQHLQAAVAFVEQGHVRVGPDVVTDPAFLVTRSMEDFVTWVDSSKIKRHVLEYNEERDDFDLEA
UniProt P0DMQ5: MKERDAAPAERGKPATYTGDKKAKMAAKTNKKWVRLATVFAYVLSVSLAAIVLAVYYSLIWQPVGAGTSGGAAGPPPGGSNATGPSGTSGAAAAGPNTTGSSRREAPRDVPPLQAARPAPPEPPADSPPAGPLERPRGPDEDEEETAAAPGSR
UniProt Q96HW7, whole entry, looked up: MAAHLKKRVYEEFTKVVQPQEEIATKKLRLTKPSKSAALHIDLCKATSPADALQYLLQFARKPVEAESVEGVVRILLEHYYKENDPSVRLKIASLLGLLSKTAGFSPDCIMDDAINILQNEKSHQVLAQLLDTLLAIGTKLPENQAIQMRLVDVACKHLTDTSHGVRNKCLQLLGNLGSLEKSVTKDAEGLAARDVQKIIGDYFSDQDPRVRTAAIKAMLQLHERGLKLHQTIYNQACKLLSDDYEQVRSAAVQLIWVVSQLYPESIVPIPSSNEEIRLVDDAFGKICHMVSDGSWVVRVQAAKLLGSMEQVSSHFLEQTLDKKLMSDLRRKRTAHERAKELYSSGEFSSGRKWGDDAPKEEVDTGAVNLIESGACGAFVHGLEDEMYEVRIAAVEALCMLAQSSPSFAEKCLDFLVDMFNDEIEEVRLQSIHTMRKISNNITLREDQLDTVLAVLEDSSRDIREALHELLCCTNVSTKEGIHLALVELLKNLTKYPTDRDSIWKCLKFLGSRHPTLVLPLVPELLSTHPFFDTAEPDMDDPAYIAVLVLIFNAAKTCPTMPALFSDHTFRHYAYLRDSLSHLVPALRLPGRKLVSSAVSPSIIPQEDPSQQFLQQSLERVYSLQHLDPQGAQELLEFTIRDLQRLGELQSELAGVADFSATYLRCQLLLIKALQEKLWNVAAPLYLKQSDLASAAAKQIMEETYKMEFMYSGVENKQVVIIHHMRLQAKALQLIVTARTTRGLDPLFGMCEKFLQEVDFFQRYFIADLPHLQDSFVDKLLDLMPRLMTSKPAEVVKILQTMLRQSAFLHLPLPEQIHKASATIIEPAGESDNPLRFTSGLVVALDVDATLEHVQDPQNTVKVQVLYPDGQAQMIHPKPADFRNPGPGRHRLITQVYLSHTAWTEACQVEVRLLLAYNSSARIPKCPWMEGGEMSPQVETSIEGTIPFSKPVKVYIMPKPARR
UniProt Q8TB96: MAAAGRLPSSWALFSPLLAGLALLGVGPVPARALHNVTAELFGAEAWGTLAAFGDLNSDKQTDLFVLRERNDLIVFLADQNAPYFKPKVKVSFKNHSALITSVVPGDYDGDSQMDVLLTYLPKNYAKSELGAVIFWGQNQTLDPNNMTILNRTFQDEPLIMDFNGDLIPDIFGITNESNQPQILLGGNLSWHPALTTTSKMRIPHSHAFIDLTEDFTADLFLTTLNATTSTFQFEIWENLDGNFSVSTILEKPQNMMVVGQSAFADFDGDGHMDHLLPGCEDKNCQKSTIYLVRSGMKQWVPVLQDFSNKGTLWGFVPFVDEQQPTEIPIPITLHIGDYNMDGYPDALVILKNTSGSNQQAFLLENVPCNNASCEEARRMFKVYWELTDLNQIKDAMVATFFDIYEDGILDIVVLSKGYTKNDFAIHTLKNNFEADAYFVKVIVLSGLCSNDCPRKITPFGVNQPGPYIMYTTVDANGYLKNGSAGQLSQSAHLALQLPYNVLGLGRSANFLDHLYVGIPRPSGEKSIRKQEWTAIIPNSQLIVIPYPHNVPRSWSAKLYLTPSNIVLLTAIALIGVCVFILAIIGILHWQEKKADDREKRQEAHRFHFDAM
UniProt Q13576: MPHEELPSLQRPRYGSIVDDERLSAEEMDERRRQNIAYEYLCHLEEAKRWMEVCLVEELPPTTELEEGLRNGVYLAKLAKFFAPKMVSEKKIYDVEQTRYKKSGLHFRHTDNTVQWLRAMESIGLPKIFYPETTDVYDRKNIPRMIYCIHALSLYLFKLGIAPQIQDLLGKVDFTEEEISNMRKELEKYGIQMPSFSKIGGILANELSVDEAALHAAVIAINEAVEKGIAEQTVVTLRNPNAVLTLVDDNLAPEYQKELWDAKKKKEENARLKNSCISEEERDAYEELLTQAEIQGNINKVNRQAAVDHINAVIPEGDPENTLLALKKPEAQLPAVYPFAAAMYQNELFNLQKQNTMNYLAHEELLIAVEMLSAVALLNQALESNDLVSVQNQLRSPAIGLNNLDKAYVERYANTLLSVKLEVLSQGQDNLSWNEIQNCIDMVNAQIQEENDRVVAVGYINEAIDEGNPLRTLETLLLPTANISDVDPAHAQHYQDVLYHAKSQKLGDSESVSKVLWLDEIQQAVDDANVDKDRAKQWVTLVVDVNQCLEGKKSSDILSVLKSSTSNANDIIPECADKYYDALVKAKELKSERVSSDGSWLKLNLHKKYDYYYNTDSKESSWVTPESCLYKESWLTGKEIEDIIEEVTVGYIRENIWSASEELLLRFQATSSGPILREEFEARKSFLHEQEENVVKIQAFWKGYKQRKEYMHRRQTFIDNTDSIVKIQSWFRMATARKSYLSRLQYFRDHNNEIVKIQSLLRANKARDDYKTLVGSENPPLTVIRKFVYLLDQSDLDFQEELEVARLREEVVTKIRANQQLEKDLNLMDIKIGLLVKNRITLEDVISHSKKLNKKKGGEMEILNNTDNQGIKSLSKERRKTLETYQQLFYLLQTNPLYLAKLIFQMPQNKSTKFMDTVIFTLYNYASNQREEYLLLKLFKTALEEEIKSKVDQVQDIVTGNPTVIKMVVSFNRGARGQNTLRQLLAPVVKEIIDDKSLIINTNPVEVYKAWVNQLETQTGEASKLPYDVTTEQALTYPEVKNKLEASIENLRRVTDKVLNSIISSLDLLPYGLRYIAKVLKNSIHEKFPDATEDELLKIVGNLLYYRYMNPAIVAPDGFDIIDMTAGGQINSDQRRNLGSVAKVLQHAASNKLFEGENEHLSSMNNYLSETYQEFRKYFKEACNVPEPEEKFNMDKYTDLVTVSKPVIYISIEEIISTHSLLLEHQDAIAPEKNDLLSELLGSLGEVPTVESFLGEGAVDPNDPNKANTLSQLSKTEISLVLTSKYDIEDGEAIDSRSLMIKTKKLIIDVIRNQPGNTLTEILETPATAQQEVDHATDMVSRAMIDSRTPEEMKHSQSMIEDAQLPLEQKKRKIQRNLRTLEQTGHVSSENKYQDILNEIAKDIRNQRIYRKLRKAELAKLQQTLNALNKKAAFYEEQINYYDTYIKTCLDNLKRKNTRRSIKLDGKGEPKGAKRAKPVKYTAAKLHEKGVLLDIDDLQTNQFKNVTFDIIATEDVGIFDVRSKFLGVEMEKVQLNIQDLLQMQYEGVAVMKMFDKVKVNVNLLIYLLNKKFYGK

log2 fold change, inactive:
IDH2 (UniProt P48735) -0.012, IQSEC2 (UniProt Q5JU85) -0.164, IMPA2 (UniProt O14732) 0.089, IKBIP isoform 4 (UniProt Q70UQ0) 0.016, IREB2 (UniProt P48200) 0.062, ING1 (UniProt Q9UK53) -0.069, IL1RAP isoform 5 (UniProt Q9NPH3) -0.051, ITPA (UniProt Q9BY32) 0.063, IMPDH2 (UniProt P12268) -0.039, IDH3B (UniProt O43837) -0.014, INTS1 (UniProt Q8N201) 0.186, ITGAV (UniProt P06756) 0.046, INTS2 (UniProt Q9H0H0) 0.127, ISOC1 (UniProt Q96CN7) -0.022, IST1 isoform 5 (UniProt P53990) -0.009, INO80E (UniProt Q8NBZ0) -0.012, IRGQ (UniProt Q8WZA9) -0.025, INTS9 (UniProt Q9NV88) 0.05, IMP3 (UniProt Q9NV31) -0.193, INAFM2 (UniProt P0DMQ5) -0.177, ITPR3 (UniProt Q14573) -0.156, INPP4A (UniProt Q96PE3) -0.015, INHBE (UniProt P58166) 0.044, INTS8 (UniProt Q75QN2) -0.001, ISY1 isoform 1 (UniProt Q9ULR0) 0.029, INTS4 (UniProt Q96HW7) 0.009, IPO8 (UniProt O15397) 0.265, ITFG1 (UniProt Q8TB96) -0.29, IQGAP2 (UniProt Q13576) 0.058

Reference: the supplement of paper PMC10849652
